Experimental data: article PMC4890593
Results are given in words; binding and its absence hold for the method and conditions named. In cells and extracts the contact can be indirect. A result given as binding can be weak or reduced; the word gives no strength. For part of these data: Sequences can lack the tags named with a protein.

Chains of the proteins cited; added tags and fusions are not shown. Lines headed by an entry give the natural chain unless they say otherwise; changes in a name come on top.
UniProt P23258: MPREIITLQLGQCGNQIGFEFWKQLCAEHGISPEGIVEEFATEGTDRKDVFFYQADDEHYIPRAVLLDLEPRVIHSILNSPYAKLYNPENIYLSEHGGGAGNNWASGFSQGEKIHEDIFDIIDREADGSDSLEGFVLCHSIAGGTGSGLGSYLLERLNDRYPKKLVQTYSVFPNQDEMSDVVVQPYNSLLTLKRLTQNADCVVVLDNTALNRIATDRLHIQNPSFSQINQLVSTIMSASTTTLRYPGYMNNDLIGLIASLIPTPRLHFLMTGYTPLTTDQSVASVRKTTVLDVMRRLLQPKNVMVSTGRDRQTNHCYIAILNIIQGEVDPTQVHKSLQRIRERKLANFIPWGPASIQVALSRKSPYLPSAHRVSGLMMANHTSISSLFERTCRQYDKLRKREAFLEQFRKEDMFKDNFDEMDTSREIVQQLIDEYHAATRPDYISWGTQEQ

How the values were obtained:
dsRed-14-3-3γ = biological target: T1, dsRed-14-3-3γ (UniProt P61981); experiment: FRET or BRET; sensitized emission FRET in fixed HCT116 cells transfected with GFP-γ-Tubulin (donor) and dsRed-14-3-3γ (acceptor)
T1 sequence: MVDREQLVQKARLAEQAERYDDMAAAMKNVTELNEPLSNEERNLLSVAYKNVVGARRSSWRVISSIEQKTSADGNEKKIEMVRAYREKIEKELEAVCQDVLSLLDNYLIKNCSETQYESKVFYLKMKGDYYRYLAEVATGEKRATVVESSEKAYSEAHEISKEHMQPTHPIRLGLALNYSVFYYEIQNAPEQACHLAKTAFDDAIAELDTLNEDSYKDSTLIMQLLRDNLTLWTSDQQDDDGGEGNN

GST-14-3-3γ = biological target: T2, GST-14-3-3γ (UniProt P61981); experiment: pull-down; biochemical analysis with bacterially purified 14-3-3 proteins (Supplementary Fig. S2e); source of γ-Tubulin not told; only the target purified
T2 sequence: T1 sequence

[1] = biological target: T3, 14-3-3γ (human (endogenous in HCT116)) (UniProt P61981); experiment: FRET or BRET; sensitized emission FRET in fixed cells stained with antibodies to γ-Tubulin and 14-3-3γ (Alexa-Fluor-488 donor, Alexa-Fluor-546 acceptor); 14-3-3γ-knockdown cells compared with vector-control cells
T3 sequence: T1 sequence

binding (GST-14-3-3γ)	Substance	binding (dsRed-14-3-3γ)	binding [1]
	GFP-γ-Tubulin (from UniProt P23258)	binds	
binds	γ-Tubulin (from UniProt P23258)		binds
